Measurements reported in PubChem BioAssay AID1259308 (NCATS, 2017)

Screen: 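Genes whose loss raises luciferase production in HEK293 cells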 (primary screen)
Cells: human HEK293 embryonic kidney cells stably expressing firefly luciferase (HEK-CMV-Luc2-Hygro)
Reagent: single siRNA against human genes, 0.8 pmol siRNA per well
Time to read-out: 72 h
Read-out: 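Reporter luminescence and viable-cell signal on separate replicate plates, given as percent of non-targeting control and median/MAD z-scores, plus per-cell luciferase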
Reading the numbers: total luciferase, z-score and total luciferase, % of control: higher = more reporter protein produced; luciferase per cell, z-score: higher = more reporter output per viable cell; viable cells, % of control: higher = more viable cells
Rule for the call: 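An siRNA counts as active if its total luciferase robust z-score exceeds 3; genes with two or more such siRNAs out of three were retested with fresh siRNAs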
Calls: active = raised luciferase; inactive = no rise
Shown is an unselected part of about 59,000 deposited reagents. About 1,510 of all reagents (2.6%) were called active. 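Calls use total luciferase alone and ignore viability, so some active siRNAs may act by altering cell number.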 The numbers tell different reagents against one gene apart.

no.	target	reagent no.	total luciferase, z-score	total luciferase, % of control	luciferase per cell, z-score	viable cells, % of control	activity call
1	LTO1 (LTO1 maturation factor of ABCE1)	1	2.22	126	1.39	97.6	inactive
2	LTO1 (LTO1 maturation factor of ABCE1)	2	2.63	134	2.29	82.1	inactive
3	LTO1 (LTO1 maturation factor of ABCE1)	3	0.486	91.6	0.849	81.8	inactive
4	MOB3A (MOB kinase activator 3A)	1	0.0377	82.6	0.269	86	inactive
5	MOB3A (MOB kinase activator 3A)	2	0.0956	83.8	-0.0725	95.4	inactive
6	MOB3A (MOB kinase activator 3A)	3	-0.843	65.1	-1.11	97.6	inactive
7	CKMT2 (creatine kinase, mitochondrial 2)	1	0.468	91.2	-0.0689	104	inactive
8	CKMT2 (creatine kinase, mitochondrial 2)	2	0.337	88.6	0.269	92.2	inactive
9	CKMT2 (creatine kinase, mitochondrial 2)	3	-0.143	79	-0.126	91.3	inactive
10	RNF25 (ring finger protein 25)	1	-1.35	55.1	0.078	60.3	inactive
11	RNF25 (ring finger protein 25)	2	1.43	110	3.26	52.3	inactive
12	RNF25 (ring finger protein 25)	3	0.795	97.7	1.16	80.3	inactive
13	ATP1A4 (ATPase Na+/K+ transporting subunit alpha 4)	1	-0.412	73.7	-0.909	105	inactive
14	ATP1A4 (ATPase Na+/K+ transporting subunit alpha 4)	2	-0.0334	81.2	-0.75	111	inactive
15	ATP1A4 (ATPase Na+/K+ transporting subunit alpha 4)	3	0.0191	82.3	-0.646	109	inactive
16	RER1 (retention in endoplasmic reticulum sorting receptor 1)	1	0.454	90.9	-0.0675	103	inactive
17	RER1 (retention in endoplasmic reticulum sorting receptor 1)	2	1.82	118	1.18	96.9	inactive
18	RER1 (retention in endoplasmic reticulum sorting receptor 1)	3	-0.0974	79.9	-0.627	105	inactive
19	ROGDI (rogdi atypical leucine zipper)	1	1.42	110	1	94.4	inactive
20	ROGDI (rogdi atypical leucine zipper)	2	-0.54	71.1	-0.951	102	inactive
21	ROGDI (rogdi atypical leucine zipper)	3	-1.43	53.4	-0.0588	60.6	inactive

Individual results from the list.
Result of RER1 (retention in endoplasmic reticulum sorting receptor 1) #2 under “luciferase per cell, z-score”: 1.18
MOB3A (MOB kinase activator 3A) #1, luciferase per cell, z-score → 0.269
LTO1 (LTO1 maturation factor of ABCE1) #2, total luciferase, z-score → 2.63
Entry for RER1 (retention in endoplasmic reticulum sorting receptor 1) #1 under “viable cells, % of control”: 103
For “viable cells, % of control”, ROGDI (rogdi atypical leucine zipper) #1 shows 94.4
Under “total luciferase, z-score”, MOB3A (MOB kinase activator 3A) #2 is entered as 0.0956

The listing continues.
no.	target	reagent no.	total luciferase, z-score	total luciferase, % of control	luciferase per cell, z-score	viable cells, % of control	activity call
22	MUTYH (mutY DNA glycosylase)	1	0.222	86.3	0.599	82.4	inactive
23	MUTYH (mutY DNA glycosylase)	2	0.639	94.6	-0.158	110	inactive
24	MUTYH (mutY DNA glycosylase)	3	0.409	90	0.518	87.8	inactive
25	CDC45 (cell division cycle 45)	1	0.492	91.7	-0.0279	103	inactive
26	CDC45 (cell division cycle 45)	2	0.96	101	1.25	81.2	inactive
27	CDC45 (cell division cycle 45)	3	-0.928	63.4	-0.847	88.6	inactive
28	TREML3P	1	0.57	93.2	0.028	103	inactive
29	TREML3P	2	1.1	104	2.35	62.4	inactive
30	TREML3P	3	3.8	157	1.89	107	active
31	TBR1 (T-box brain transcription factor 1)	1	0.593	93.7	0.463	92.7	inactive
32	TBR1 (T-box brain transcription factor 1)	2	-0.747	67	1.96	44.7	inactive
33	TBR1 (T-box brain transcription factor 1)	3	0.96	101	0.835	90.6	inactive
34	SLC38A9	1	-0.541	71.1	-0.459	89.7	inactive
35	SLC38A9	2	0.326	88.4	0.257	92.3	inactive
36	SLC38A9	3	-1.06	60.8	0.647	57.3	inactive
37	RCN1 (reticulocalbin 1)	1	0.408	90	0.114	97.6	inactive
38	RCN1 (reticulocalbin 1)	2	-1.01	61.8	-0.954	88.7	inactive
39	RCN1 (reticulocalbin 1)	3	0.375	89.3	0.326	91.6	inactive
40	CYTH3 (cytohesin 3)	1	1.1	104	1.26	83.2	inactive
41	CYTH3 (cytohesin 3)	2	1.23	106	0.809	95.9	inactive
42	CYTH3 (cytohesin 3)	3	-0.45	72.9	-0.145	84.7	inactive
43	CD55 (CD55 molecule (Cromer blood group))	1	-0.0153	81.6	-0.612	107	inactive
44	CD55 (CD55 molecule (Cromer blood group))	2	-0.889	64.2	-0.956	92.3	inactive
45	CD55 (CD55 molecule (Cromer blood group))	3	-0.196	78	0.118	84.5	inactive
46	RNH1 (ribonuclease/angiogenin inhibitor 1)	1	0.59	93.6	0.267	97.5	inactive
47	RNH1 (ribonuclease/angiogenin inhibitor 1)	2	-0.156	78.8	-0.524	101	inactive
48	RNH1 (ribonuclease/angiogenin inhibitor 1)	3	-0.95	63	-0.826	87.5	inactive
49	LINC00545 (long intergenic non-protein coding RNA 545)	1	-1.47	52.6	-1.75	93.1	inactive
50	LINC00545 (long intergenic non-protein coding RNA 545)	2	-2.57	30.8	-0.952	44.3	inactive
51	LINC00545 (long intergenic non-protein coding RNA 545)	3	-0.531	71.3	-0.929	102	inactive
52	WHRN (whirlin)	1	-0.42	73.5	0.689	68.5	inactive
53	WHRN (whirlin)	2	0.786	97.5	3.64	41.8	inactive
54	WHRN (whirlin)	3	0.435	90.5	0.169	96.8	inactive
55	STUM (stum, mechanosensory transduction mediator homolog)	1	-0.825	65.5	-0.674	87.4	inactive
56	STUM (stum, mechanosensory transduction mediator homolog)	2	-0.109	79.7	0.629	75.5	inactive
57	STUM (stum, mechanosensory transduction mediator homolog)	3	0.108	84	-0.379	104	inactive
